This note sets out measurements from patent US6632921B1 (G. D Searle & Co, priority 1995, dated 2003).

Data set [1] is described as follows: general procedure: Boc solid-phase peptide synthesis; hydroxymethyl-resin of styrene/1% divinylbenzene; dicyclohexylcarbodiimide; disuccinimidylcarbonate/4-dimethylaminopyridine. As to conditions: whole synthesis, bis-trifluoroacetate.
Data set [2] can be described thus: general procedure: Boc solid-phase peptide synthesis; N-BOC-L-leucyl-O-methylphenylacetamido-methyl-resin; dicyclohexylcarbodiimide; disuccinimidylcarbonate/4-dimethylaminopyridine. As to conditions: whole synthesis, bis-trifluoroacetate.

“L-alanine, 3-cyclohexyl-N-[[(il-amino-undecanoyl)-L-seryl]-L-lysyl]-, bis-trifluoroacetate”: the “final HPLC purity” value in data set [1] was found to be 95%.
For the substance “L-leucine, N-[[(11-amino-undecanoyl)-L-seryl]-L-lysyl]-, bis-trifluoroacetate”, the “final HPLC purity” value in data set [2] is 98%.
